Measurements: publication PMC3841102, “Activation of Smurf E3 Ligase Promoted by Smoothened Regulates Hedgehog Signaling through Targeting Patched Turnover” (PLoS Biology, 2013)

Sequences of proteins named here, by UniProt entry; tags and fusion partners are left off. A change or cut given only in a name is not applied to a line headed by its entry.
UniProt P18502: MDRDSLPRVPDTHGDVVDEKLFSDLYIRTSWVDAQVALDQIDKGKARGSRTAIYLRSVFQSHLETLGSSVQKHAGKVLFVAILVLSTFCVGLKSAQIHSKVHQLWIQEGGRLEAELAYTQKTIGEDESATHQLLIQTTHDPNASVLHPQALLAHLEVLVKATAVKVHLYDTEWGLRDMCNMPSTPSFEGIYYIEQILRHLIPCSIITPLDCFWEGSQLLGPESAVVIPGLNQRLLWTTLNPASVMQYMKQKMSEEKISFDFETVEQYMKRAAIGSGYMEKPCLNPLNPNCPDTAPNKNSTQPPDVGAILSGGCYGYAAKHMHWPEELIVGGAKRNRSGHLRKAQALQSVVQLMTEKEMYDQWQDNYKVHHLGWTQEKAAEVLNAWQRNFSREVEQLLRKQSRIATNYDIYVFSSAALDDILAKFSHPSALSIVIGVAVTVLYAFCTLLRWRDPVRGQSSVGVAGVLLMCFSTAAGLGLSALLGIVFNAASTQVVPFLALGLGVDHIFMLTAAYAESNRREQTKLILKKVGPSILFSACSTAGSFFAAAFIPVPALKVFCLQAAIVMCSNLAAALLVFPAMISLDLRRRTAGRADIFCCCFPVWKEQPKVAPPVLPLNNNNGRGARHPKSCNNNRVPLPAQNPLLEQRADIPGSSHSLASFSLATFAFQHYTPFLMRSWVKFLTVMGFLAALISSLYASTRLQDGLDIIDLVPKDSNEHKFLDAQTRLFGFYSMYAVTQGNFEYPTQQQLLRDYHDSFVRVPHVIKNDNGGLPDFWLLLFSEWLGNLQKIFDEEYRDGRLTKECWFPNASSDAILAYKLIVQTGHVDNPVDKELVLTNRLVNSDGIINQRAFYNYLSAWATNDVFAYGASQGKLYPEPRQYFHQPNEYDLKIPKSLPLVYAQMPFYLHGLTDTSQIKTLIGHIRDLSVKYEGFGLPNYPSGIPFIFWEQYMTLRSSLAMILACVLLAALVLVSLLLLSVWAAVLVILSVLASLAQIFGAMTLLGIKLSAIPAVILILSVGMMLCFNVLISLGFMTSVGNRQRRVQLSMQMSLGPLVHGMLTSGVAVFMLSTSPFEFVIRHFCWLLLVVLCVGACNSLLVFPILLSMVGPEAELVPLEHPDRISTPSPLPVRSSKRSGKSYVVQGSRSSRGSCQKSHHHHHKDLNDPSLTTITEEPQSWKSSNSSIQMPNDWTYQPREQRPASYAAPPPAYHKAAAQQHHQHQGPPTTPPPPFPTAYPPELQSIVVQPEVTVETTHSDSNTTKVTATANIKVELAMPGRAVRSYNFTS

Molecular target: GST:Flag:Ptc^CTD carrying PPAY mutations (PPAY-AAAA) (Drosophila) (UniProt P18502)
Experiment: pull-down; GST fusion protein loaded glutathione beads incubated with 200 ng purified His:Smurf; 50 mM Tris-Cl pH 8.0, 200 mM NaCl, 1 mM EDTA, 1% NP-40, 2% BSA, 10 mM DTT, 1 mM PMSF; 4°C, 1 h; Western blot; both purified

B1: His:Smurf protein (full length Drosophila Smurf) (enzyme, UniProt Q9V853 1-1061)
chain: MNKLDYPRRNGTHKVRITILCARNLARKDLFRLPDPFAKVQVDGTGQVYSTEISKSSLDPKWNAHYDLFLGIGDAITITVWNQRKIHKGSGFLGCVRIPAFNIQSLKGAGFQRLDLGKLSPDDDELVRGQIIISLLSKDGPSSGNPLAIVGPSGDVRGPSEDDSSEDSLPEGWEERRTDNGRVYYVNHATKSTQWDRPRQPGVVGSSHATSPQQRHNTHNGNSGDRQAPAGPTRSTTCTNLMNNGHRSRDLSVTASDERRHSTEILSSVGKENTSPTTPVSATTTPGKKTSSSNSSSAGGRTLEQRPTNEPATPTSSTTSASVRLHSNDNHVKTPKHQTNGHAPPESTPTSPTGQQNYVNGNAQNGSTSGNGSGQAAQPQSASNGWTQEDAATTTSPSTTTSPPRHSQSPPTPNISPPASVTPSANGNVHSPNANSTPAGSGGGSRSYTAATPGQRSQRRSSRQQGEESSTRRRSSRGTRNGGTSGGGGGGGSGQRYASAAIAAANQAARPFLDLPPGYEMRTTQQGQVYFYHIPTGVSTWHDPRIPRDFDTQHLTLDAIGPLPSGWEQRKTASGRVYFVDHNNRTTQFTDPRLSGSILQMIRRGTVPPTSAANAGTPAPPSATPATPSAAAAVPPQATPASNATPTTLTTTTNPPHRIVPDLPQGLLEGADLLPKYRRDLVGKLRALRTELQTMQPQSGHCRLEVSRNEIFEESYRLIMKMRAKDMRKRLMVKFKGEEGLDYGGVAREWLHLLSREMLNPQYGLFQYSRDDHYTLQINPDSGVNPDHLSYFHFVGRTLGIAVFHGHCLDGGFTTPFYKQLLNKPITLGDIEGVDPDLHRSLTWMLESNISGIIESTFSVENNSFGALVVHELKPGGASIPVTEENKREYVKLYVNYRFMRGIEQQFLALQKGFCELIPSHLLRPFDERELELVIGGISSIDVNDWRNNTRLKHCTNETTQVLWFWQVVESYSSEMRARLLQFVTGSSRVPLQGFRALQGSTGAVGPRLFTIHLTADVPTQNLPKAHTCFNRIDLPPYETYQLLCDKLTQAVEETCGFAVE
**Q.** With B1 as the binder, how does the binding read?
**A.** no binding (tested: 200 ng of purified His:Smurf)

Results are given in words; binding and its absence hold for the method and conditions named. Where a sequence is shown, tags or fusion partners need not be part of it.
